# Some entries of the source have several records that differ or are many. The list is limited to them. The source may hold further records. Results that share an entry differ for a reason that is not stated; some may be repeats, others may stem from another dose, organism or construct than stated.
# Tested on: healthy volunteers and patients undergoing a colonoscopy
# Assay: CNS 7056-fentanyl interaction MOAA/S pharmacodynamic analysis
# Conditions: CNS7056FEN01AS
smiles,measurement,value
"COC(=O)CC[C@@H]1N=C(c2ccccn2)c2cc(Br)ccc2-n2c(C)cnc21 [CNS 7056, 3-[(4S)-8-bromo-1-methyl-6-(2-pyridinyl)-4H-imidazo[1,2-a][1,4]benzodiazepin-4-yl] propionic methyl ester]","EC50, eta IIV (RSE%)",36.33 (16.0) % and 36.17 (16.0) %
same,"Hill Coefficient, eta IIV (RSE%)",55.55 (24.3) % and 55.67 (24.3) %

# Reference: patent US20230346796A1 (priority 2010, published 2023)
